# At least one compound was matched to its structure with a doubt left. Positions of bridges follow the written chain, without caps; N, C: chain ends. Non-standard residues stand in square brackets, D forms with d. Residues, ends and D or L forms follow the SMILES beside them. *: point of attachment. X1 = N=C(N)NCCC[C@H]1C(=O)N[C@@H](C(N)=O)CN1*; dNle = CCCC[C@@H](N)C(=O)O; Heptanoyl = CCCCCCC(=O)*
# What was measured:
# [1] = test system: dog NPRA; test: cGMP generation in HEK cells expressing dog NPRA; format: cell-based; conditions: mean ± SD
# [2] = test system: two-kidney, one clip model rats; test: Two-kidney, one clip (2K1C) rat model of renovascular hypertension and heart failure; format: in vivo; conditions: 0.03 mg/kg daily subcutaneous
# [3] = test system: plasma cGMP; test: Human clinical trial, subcutaneous injection: plasma cGMP by LC-MS/MS; format: in vivo; conditions: 0.3 μg/kg single subcutaneous injection
# [4] = test system: plasma cGMP; test: Safety study in healthy volunteers: pharmacodynamic parameters (plasma cGMP); format: in vivo, human; conditions: for AUEC(0-t) / Emax: mean ± SD
# Procedure: In a safety study, the mimetic of formula IV was administered to healthy volunteers. Doses of 0.1, 0.3, 0.7 and 1.0 μg/kg of the mimetic of formula IV were administered.
# Kel is the apparent terminal elimination rate constant, calculated by linear regression of the terminal linear portion of the log concentration versus the time curve. The plasma cGMP concentrations returned to baseline levels by approximately 8 hours after dosing following 0.7 μg/kg and 1.0 μg/kg of the mimetic of formula IV.
# [5] = target: T1, human NPRA (Homo sapiens, UniProt P16066); test: cGMP generation in HEK cells expressing human NPRA; format: cell-based; conditions: human NPRA expressed in HEK cell line; mean ± SD; read-out: Function (cGMP) EC50
# T1 sequence (P16066 33-1061): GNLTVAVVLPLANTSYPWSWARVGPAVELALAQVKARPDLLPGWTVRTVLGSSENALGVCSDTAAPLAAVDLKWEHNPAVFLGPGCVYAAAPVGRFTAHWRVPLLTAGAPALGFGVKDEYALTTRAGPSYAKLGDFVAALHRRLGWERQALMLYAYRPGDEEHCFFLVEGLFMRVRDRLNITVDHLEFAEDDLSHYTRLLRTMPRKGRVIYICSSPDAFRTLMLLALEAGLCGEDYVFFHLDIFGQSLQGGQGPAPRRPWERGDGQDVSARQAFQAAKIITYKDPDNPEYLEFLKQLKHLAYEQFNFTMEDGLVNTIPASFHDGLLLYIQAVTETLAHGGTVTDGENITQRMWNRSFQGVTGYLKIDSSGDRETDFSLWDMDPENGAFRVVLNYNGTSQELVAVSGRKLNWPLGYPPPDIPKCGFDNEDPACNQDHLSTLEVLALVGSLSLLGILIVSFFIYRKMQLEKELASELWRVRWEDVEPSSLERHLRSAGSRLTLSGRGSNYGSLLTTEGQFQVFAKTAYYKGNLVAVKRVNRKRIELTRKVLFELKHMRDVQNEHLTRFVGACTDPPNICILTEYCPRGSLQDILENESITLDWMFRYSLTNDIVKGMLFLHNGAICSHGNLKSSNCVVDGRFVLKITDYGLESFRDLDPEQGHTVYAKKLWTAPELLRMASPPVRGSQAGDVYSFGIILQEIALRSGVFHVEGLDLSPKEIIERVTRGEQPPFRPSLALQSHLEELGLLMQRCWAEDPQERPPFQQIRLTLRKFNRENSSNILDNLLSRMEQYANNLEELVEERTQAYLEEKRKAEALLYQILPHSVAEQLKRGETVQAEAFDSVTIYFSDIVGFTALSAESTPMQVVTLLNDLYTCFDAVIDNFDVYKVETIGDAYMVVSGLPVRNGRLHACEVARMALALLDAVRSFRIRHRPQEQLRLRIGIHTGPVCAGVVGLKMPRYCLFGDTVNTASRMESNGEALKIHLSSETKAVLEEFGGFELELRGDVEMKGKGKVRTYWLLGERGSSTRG
# [6] = test system: cGMP and protein kinase G serine/threonine kinase activity in left ventricular tissue; test: Osmotic pump infusion in corin knockout and wild-type mice: left ventricular cGMP and protein kinase G activity; format: in vivo, mouse; conditions: 0.0001, 0.001, 0.01 mg/kg/min by osmotic pump, 21 days, highest at 0.01 mg/kg/min
# [7] = test system: dog NPRA; test: Competitive binding assay, HEK cell line expressing dog NPRA; conditions: dog NPRA expressed in HEK cell line; mean ± SD
# [8] = target: T2, hNPRB (human NPRB) (Homo sapiens, UniProt P20594); test: NPRB functional assay (cGMP generation) in HEK cell line; format: cell-based; conditions: concentrations up to 10 μM; n=8
# T2 construct: expressed in transfected cells; host or cells: HEK cell line
# T2 sequence (P20594 23-1047): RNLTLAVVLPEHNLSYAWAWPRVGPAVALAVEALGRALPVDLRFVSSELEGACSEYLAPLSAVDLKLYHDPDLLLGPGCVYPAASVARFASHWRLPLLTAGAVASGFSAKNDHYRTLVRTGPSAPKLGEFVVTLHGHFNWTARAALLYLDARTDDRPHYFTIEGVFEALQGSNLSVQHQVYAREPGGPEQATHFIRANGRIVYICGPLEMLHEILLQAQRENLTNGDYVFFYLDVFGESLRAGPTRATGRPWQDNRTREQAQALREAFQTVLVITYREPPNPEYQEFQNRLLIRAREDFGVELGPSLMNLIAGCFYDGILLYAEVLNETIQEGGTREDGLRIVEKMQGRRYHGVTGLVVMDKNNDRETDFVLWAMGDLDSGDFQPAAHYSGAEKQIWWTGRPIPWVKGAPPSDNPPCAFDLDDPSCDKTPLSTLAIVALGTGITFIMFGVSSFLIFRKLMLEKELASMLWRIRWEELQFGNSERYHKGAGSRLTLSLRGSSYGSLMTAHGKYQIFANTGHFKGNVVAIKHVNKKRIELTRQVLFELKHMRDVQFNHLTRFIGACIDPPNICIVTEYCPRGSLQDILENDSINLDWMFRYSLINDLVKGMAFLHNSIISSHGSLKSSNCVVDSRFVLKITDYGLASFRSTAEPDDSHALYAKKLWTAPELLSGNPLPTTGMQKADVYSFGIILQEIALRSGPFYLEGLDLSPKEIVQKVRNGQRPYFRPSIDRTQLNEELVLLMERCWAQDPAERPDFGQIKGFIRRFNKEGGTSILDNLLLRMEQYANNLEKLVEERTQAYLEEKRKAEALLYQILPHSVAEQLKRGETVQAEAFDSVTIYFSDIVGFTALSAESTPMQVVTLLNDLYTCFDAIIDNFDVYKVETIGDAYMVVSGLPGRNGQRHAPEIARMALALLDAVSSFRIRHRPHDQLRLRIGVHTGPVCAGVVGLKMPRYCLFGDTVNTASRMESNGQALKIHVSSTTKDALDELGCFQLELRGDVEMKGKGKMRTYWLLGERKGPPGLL
# [9] = target: T3, rat NPRA (Rattus norvegicus, UniProt P18910); test: cGMP generation in HEK cells expressing rat NPRA; format: cell-based; conditions: rat NPRA expressed in HEK cell line; mean ± SD; read-out: Function (cGMP) EC50
# T3 construct: expressed in transfected cells; host or cells: HEK cell line
# T3 sequence (P18910 29-1057): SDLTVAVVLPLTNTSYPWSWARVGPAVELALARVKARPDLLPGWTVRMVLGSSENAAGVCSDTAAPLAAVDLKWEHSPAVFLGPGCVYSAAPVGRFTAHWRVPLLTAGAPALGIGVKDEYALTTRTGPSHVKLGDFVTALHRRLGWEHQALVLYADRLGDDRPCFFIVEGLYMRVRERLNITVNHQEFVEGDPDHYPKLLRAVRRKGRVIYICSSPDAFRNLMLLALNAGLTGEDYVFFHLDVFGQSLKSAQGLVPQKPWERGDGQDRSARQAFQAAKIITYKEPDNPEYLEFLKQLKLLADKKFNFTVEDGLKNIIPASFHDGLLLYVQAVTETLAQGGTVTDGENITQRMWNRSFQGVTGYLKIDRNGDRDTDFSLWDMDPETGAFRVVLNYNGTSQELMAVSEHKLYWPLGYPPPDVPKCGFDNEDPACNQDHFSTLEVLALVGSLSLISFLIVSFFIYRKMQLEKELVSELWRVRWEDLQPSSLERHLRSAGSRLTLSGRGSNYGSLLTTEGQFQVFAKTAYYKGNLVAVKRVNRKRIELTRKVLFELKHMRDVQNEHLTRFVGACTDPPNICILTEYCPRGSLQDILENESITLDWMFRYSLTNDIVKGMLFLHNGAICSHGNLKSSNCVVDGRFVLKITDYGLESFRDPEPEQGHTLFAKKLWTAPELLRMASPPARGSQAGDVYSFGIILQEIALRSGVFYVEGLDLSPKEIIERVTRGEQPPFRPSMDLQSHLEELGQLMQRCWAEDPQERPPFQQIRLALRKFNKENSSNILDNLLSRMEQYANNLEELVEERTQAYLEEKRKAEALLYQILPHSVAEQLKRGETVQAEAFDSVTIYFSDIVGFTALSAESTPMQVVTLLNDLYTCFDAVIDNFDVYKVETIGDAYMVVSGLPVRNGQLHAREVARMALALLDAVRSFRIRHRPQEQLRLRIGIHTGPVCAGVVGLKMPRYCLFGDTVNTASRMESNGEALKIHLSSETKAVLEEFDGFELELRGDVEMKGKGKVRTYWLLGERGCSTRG
# [10] = target: T4, hNPRC (human NPRC) (Homo sapiens, UniProt P17342); test: NPRC binding study in HEK cell line; conditions: human NPRC Ki versus human NPRA Ki
# T4 construct: expressed in transfected cells; host or cells: HEK cell line
# T4 sequence (P17342 27-541): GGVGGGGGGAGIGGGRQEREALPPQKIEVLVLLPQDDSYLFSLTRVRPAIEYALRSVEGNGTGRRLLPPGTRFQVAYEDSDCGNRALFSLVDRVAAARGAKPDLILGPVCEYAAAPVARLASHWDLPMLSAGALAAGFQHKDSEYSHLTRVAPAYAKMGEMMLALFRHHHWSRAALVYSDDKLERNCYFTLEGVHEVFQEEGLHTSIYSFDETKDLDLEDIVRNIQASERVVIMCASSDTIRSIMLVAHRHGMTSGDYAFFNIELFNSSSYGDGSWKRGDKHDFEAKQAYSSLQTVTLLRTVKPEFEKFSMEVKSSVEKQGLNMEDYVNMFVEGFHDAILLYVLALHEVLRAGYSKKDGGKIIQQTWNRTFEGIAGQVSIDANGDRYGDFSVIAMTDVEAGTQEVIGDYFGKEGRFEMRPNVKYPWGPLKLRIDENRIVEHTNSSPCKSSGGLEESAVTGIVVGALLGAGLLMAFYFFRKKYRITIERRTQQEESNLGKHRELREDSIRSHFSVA
# [11] = test system: corin knockout mice with thoracic aortic banding; test: Thoracic aortic banding in conditional cardiomyocyte restricted corin knockout mice; format: in vivo, mouse
# [12] = corin knockout mice, 0.01 mg/kg/min
compound,measurement,setting,value
CCCCCCC(=O)N[C@H]1CSSC[C@@H](C(=O)N[C@@H](Cc2ccc(O)cc2)C(=O)N2C[C@H](C(N)=O)NC(=O)[C@@H]2CCCNC(=N)N)NC(=O)[C@H](CO)NC(=O)[C@H]([C@@H](C)CC)NC(=O)[C@H](CCCNC(=N)N)NC(=O)[C@H](CC(=O)O)NC(=O)[C@@H](CCCC)NC(=O)[C@H](CCCNC(=N)N)NC(=O)CNC(=O)[C@@H](C)NC(=O)[C@H](Cc2ccccc2)NC(=O)[C@H](Cc2c[nH]cn2)NC1=O [mimetic of formula IV] (Heptanoyl-CHF[dA]GR[dNle]DRISCY-X1; disulfide 1-12),EC50,"[1]; dog NPRA expressed in HEK cell line, read-out: Function (cGMP) EC50",3 ± 1 nM
same,Function (cGMP) Emax (% of ANP response),"[1]; dog NPRA, HEK",94 ± 11 % of ANP response
same,heart weight to body weight ratio compared to saline control,"[2]; 2K1C rats, after 42 days",significantly reduced
same,plasma aldosterone compared to saline control,"[2]; 2K1C rats, day 42",significant lower
same,"heart weight to body weight ratio, drug versus saline",[2]; sham surgical procedure rats (no clip),virtually identical
same,mean peak increase in plasma cGMP concentration,[3],1.7 ng/mL
same,tmax median,[4]; dose 0.1 μg/kg,1.51 h
same,AUEC(0-t),[4]; dose 0.1 μg/kg,5.367 ± 5.612 ng·h/mL
same,Emax,[4]; dose 0.1 μg/kg,0.979 ± 0.456 ng/mL
same,tmax median,[4]; dose 0.3 μg/kg,1.06 h
same,AUEC(0-t),[4]; dose 0.3 μg/kg,0.6079 ± 14.94 ng·h/mL
same,Emax,[4]; dose 0.3 μg/kg,1.83 ± 1.96 ng/mL
same,tmax median,[4]; dose 0.7 μg/kg,1.00 h
same,AUEC(0-t),[4]; dose 0.7 μg/kg,10.30 ± 11.58 ng·h/mL
same,Emax,[4]; dose 0.7 μg/kg,4.35 ± 1.02 ng/mL
same,tmax median,[4]; dose 1.0 μg/kg,1.02 h
same,AUEC(0-t),[4]; dose 1.0 μg/kg,8.713 ± 23.32 ng·h/mL
same,Emax,[4]; dose 1.0 μg/kg,4.33 ± 1.33 ng/mL
same,time after dosing by which plasma cGMP concentrations returned to baseline levels,[4]; following 0.7 μg/kg and 1.0 μg/kg,approximately 8 hours
same,EC50,[5],2 ± 4 nM
same,cGMP in left ventricular tissue,[6],A dose response was seen
same,relative protein kinase G serine/threonine kinase activity in left ventricular tissue,[6],A dose response was seen
same,Ki,[7],41 nM
same,effect in NPRB functional assays (cGMP generation),[8],without effect
same,EC50,[9],14 ± 9 nM
same,lower affinity for NPRC than for NPRA,[10],~7 fold
same,heart weight/body weight (mg/g) ratio of PBS-control corin knockout mice relative to treated corin knockout mice,"[11]; 0.01 mg/kg/min osmotic pump, two weeks",markedly higher
same,cGMP level in left ventricular tissue versus PBS control,[11]; [12],higher
same,relative protein kinase G serine/threonine kinase activity level versus PBS control,[11]; [12],higher
